Results are given in words; binding and its absence hold for the method and conditions named. Some results given as binding are weak or reduced against the parent protein; the word gives no strength.
How the values were obtained:
PGLa (Xenopus laevis) [1] = assay: transmission electron microscopy + FTIR; negative-stain TEM of the samples fibrillated in Mueller-Hinton medium; FTIR of fibril pellets prepared in 50 mM phosphate buffer pH 7.4; both purified
PGLa (Xenopus laevis) [2] = assay: thioflavin T fluorescence (fibrillation kinetics); 0.5 mM peptide in Mueller-Hinton medium with 40 uM ThT, 96-well half area plates, 37°C, 300 rpm orbital shaking; for PGLa also phosphate buffers pH 6.5 to 8.5; both purified
PGLa (Xenopus laevis) [3] = assay: co-sedimentation; 0.5 mM peptide shaken 1 day in tubes in 50 mM sodium phosphate pH 7.4 (with or without 150 mM NaCl; PGLa also in ammonium bicarbonate pH 7.4); 13,000 rpm 30 min; peptide left in the supernatant quantified by HPLC; both purified
[4] = target: magainin 2a (Xenopus laevis); assay: condition: only in Tris, HEPES or acetate buffer or pure water, without phosphate (0.5 mM peptide); co-sedimentation; 0.5 mM peptide shaken 1 day in tubes in 50 mM Tris, HEPES or acetate buffer or pure water (no phosphate); 13,000 rpm 30 min; peptide left in the supernatant quantified by HPLC; both purified

| Binder | binding (PGLa (Xenopus laevis) [1]) | binding (PGLa (Xenopus laevis) [2]) | binding (PGLa (Xenopus laevis) [3]) | binding [4] |
| --- | --- | --- | --- | --- |
| GMASKAGAIAGKIAKVALKAL (C-terminal amide) [PGLa] | binds | binds | binds |  |
| GIGKFLHSAKKFGKAFVGEIMNS (C-terminal amide) [magainin 2a] |  |  |  | no binding |
